PubChem BioAssay AID1259308 | NCATS, 2017
Here is a random part of about 59,000 reagents. Of all reagents, about 1,510 (2.6%) were called active. 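Calls use total luciferase alone and ignore viability, so some active siRNAs may act by altering cell number.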 A number with no mark means an inactive call.

Screen: 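Genes whose loss raises luciferase production in HEK293 cells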 (primary screen)
System: human HEK293 embryonic kidney cells stably expressing firefly luciferase (HEK-CMV-Luc2-Hygro)
Reagents: single siRNA against human genes, 0.8 pmol siRNA per well
Timing: 72 h
Measured: 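Luciferase light (ONE-Glo) measured on one replicate plate set and viability (CellTiter-Glo) on the other, scaled to a negative control siRNA, with robust z-scores and luciferase per cell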
Scale: total luciferase, z-score and total luciferase, % of control: higher = more reporter protein produced; luciferase per cell, z-score: higher = more reporter output per viable cell; viable cells, % of control: higher = more viable cells
Hit rule: 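Active when the median/MAD z-score for overall luciferase is greater than 3; a gene was taken forward for validation with new siRNAs if at least two of its three siRNAs passed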
Meaning of the calls: active = raised luciferase; inactive = no rise

| gene symbol | PubChem SID | total luciferase, z-score | total luciferase, % of control | luciferase per cell, z-score | viable cells, % of control |
| --- | --- | --- | --- | --- | --- |
| SMC2 (structural maintenance of chromosomes 2) | SID160728810 | -0.0601 | 80.7 | -0.156 | 94 |
| SMC2 (structural maintenance of chromosomes 2) | SID160728811 | 0.185 | 85.6 | 1.05 | 72.4 |
| SMC2 (structural maintenance of chromosomes 2) | SID160728812 | -0.603 | 69.9 | -0.978 | 101 |
| MAGEC2 (MAGE family member C2) | SID160740810 | 1.07 | 103 | 0.318 | 106 |
| MAGEC2 (MAGE family member C2) | SID160740811 | -0.186 | 78.2 | 0.562 | 75.4 |
| MAGEC2 (MAGE family member C2) | SID160740813 | 1.57 | 113 | 0.854 | 101 |
| ATXN7L1 (ataxin 7 like 1) | SID160732712 | -1.14 | 59.2 | -0.678 | 79 |
| ATXN7L1 (ataxin 7 like 1) | SID160761840 | -0.837 | 65.2 | -1.46 | 107 |
| ATXN7L1 (ataxin 7 like 1) | SID160761841 | -1.08 | 60.3 | -1.31 | 95.2 |
| SLC7A1 | SID160716889 | 3.31 (active) | 148 | 2.3 | 90 |
| SLC7A1 | SID160716890 | -0.834 | 65.3 | -0.831 | 90.8 |
| SLC7A1 | SID160716891 | -0.955 | 62.9 | -0.853 | 88 |
| OCLNP1 (OCLN pseudogene 1) | SID160770260 | -0.322 | 75.5 | -0.55 | 97.5 |
| OCLNP1 (OCLN pseudogene 1) | SID160770261 | 0.629 | 94.4 | 1.01 | 80.9 |
| OCLNP1 (OCLN pseudogene 1) | SID160770262 | -0.347 | 75 | -0.554 | 97 |
| CYP4F2 (cytochrome P450 family 4 subfamily F member 2) | SID160720248 | -1.46 | 52.8 | -2.09 | 102 |
| CYP4F2 (cytochrome P450 family 4 subfamily F member 2) | SID160720249 | 0.124 | 84.4 | -0.241 | 100 |
| CYP4F2 (cytochrome P450 family 4 subfamily F member 2) | SID160720250 | -1 | 61.9 | -1.7 | 108 |
| ZNF791 (zinc finger protein 791) | SID160730675 | -0.287 | 76.2 | -0.754 | 104 |
| ZNF791 (zinc finger protein 791) | SID160759991 | 3.81 (active) | 158 | 2.39 | 94.1 |
| ZNF791 (zinc finger protein 791) | SID160759992 | -0.043 | 81 | 0.237 | 85.1 |
| RPAIN (RPA interacting protein) | SID160752005 | 2.64 | 134 | 1.79 | 93.8 |
| RPAIN (RPA interacting protein) | SID160752007 | 0.776 | 97.3 | -0.202 | 115 |
| RPAIN (RPA interacting protein) | SID160752008 | -0.402 | 73.9 | -0.224 | 87.6 |
| CNOT3 (CCR4-NOT transcription complex subunit 3) | SID160778143 | 3.99 (active) | 161 | 3.61 | 69.6 |
| CNOT3 (CCR4-NOT transcription complex subunit 3) | SID160778144 | -2.03 | 41.5 | -2.01 | 78.7 |
| CNOT3 (CCR4-NOT transcription complex subunit 3) | SID160778145 | 0.619 | 94.2 | 0.695 | 87.7 |
| ANAPC16 (anaphase promoting complex subunit 16) | SID160732369 | 2.07 | 123 | 1.53 | 92 |
| ANAPC16 (anaphase promoting complex subunit 16) | SID160755717 | 1.53 | 112 | 2.76 | 60.8 |
| ANAPC16 (anaphase promoting complex subunit 16) | SID160755718 | -0.0834 | 80.2 | 0.281 | 83.2 |
| STIM2 (stromal interaction molecule 2) | SID160746429 | -0.165 | 78.6 | -0.659 | 104 |
| STIM2 (stromal interaction molecule 2) | SID160746430 | 0.179 | 85.4 | 0.0102 | 95.2 |
| STIM2 (stromal interaction molecule 2) | SID160746431 | 2.42 | 130 | 2.24 | 80.5 |
| RBPMS2 (RNA binding protein, mRNA processing factor 2) | SID160765044 | -1.5 | 52.1 | -1.16 | 78.9 |
| RBPMS2 (RNA binding protein, mRNA processing factor 2) | SID160765045 | -0.697 | 68 | -0.68 | 90.9 |
| RBPMS2 (RNA binding protein, mRNA processing factor 2) | SID160765046 | 0.24 | 86.7 | 1.14 | 71.7 |
| CCDC9 (coiled-coil domain containing 9) | SID160737612 | 2.12 | 124 | 1.67 | 89.2 |
| CCDC9 (coiled-coil domain containing 9) | SID160737613 | -0.283 | 76.2 | -0.703 | 103 |
| CCDC9 (coiled-coil domain containing 9) | SID160737614 | -0.286 | 76.2 | 0.0292 | 84.5 |
| EMC6 (ER membrane protein complex subunit 6) | SID160735031 | -0.909 | 63.8 | -1.15 | 96.6 |
| EMC6 (ER membrane protein complex subunit 6) | SID160751136 | -0.217 | 77.6 | -0.823 | 108 |
| EMC6 (ER membrane protein complex subunit 6) | SID160751137 | -0.733 | 67.3 | -0.296 | 81.3 |
| GABBR2 (gamma-aminobutyric acid type B receptor subunit 2) | SID160722517 | -0.932 | 63.3 | 1.46 | 48.2 |
| GABBR2 (gamma-aminobutyric acid type B receptor subunit 2) | SID160722518 | -0.174 | 78.4 | -0.254 | 93.7 |
| GABBR2 (gamma-aminobutyric acid type B receptor subunit 2) | SID160722519 | 0.0512 | 82.9 | -0.8 | 114 |
| TMEM89 (transmembrane protein 89) | SID160725411 | 1.36 | 109 | 1.81 | 75.6 |
| TMEM89 (transmembrane protein 89) | SID160725412 | 3.29 (active) | 147 | 2.8 | 78.8 |
| TMEM89 (transmembrane protein 89) | SID160733405 | 0.0694 | 83.3 | 0.238 | 87.4 |
| CNIH3 (cornichon family AMPA receptor auxiliary protein 3) | SID160758781 | -0.356 | 74.8 | 0.266 | 77.9 |
| CNIH3 (cornichon family AMPA receptor auxiliary protein 3) | SID160758782 | -0.624 | 69.5 | -0.0765 | 79.2 |
| CNIH3 (cornichon family AMPA receptor auxiliary protein 3) | SID160758783 | 0.435 | 90.5 | 0.0777 | 99.1 |
| ARNT2 (aryl hydrocarbon receptor nuclear translocator 2) | SID160723429 | 0.254 | 86.9 | 0.685 | 81.1 |
| ARNT2 (aryl hydrocarbon receptor nuclear translocator 2) | SID160723430 | 1.03 | 102 | 2.02 | 67.1 |
| ARNT2 (aryl hydrocarbon receptor nuclear translocator 2) | SID160723431 | 0.578 | 93.4 | 0.732 | 86.1 |
| PHKA2 (phosphorylase kinase regulatory subunit alpha 2) | SID160714255 | 0.0469 | 82.8 | 0.0151 | 92.2 |
| PHKA2 (phosphorylase kinase regulatory subunit alpha 2) | SID160714256 | -1.9 | 44 | -2.43 | 93.2 |
| PHKA2 (phosphorylase kinase regulatory subunit alpha 2) | SID160714257 | 0.608 | 94 | 0.0411 | 104 |
| ZBTB47 (zinc finger and BTB domain containing 47) | SID160754413 | -0.663 | 68.7 | -0.805 | 94.9 |
| ZBTB47 (zinc finger and BTB domain containing 47) | SID160754414 | 0.455 | 90.9 | 0.885 | 80.5 |
| ZBTB47 (zinc finger and BTB domain containing 47) | SID160754415 | -2.55 | 31.2 | -3.08 | 78.5 |
| VMA21 (vacuolar ATPase assembly factor VMA21) | SID160761157 | -1.93 | 43.5 | -1.49 | 72 |
| VMA21 (vacuolar ATPase assembly factor VMA21) | SID160761158 | 1.17 | 105 | 0.46 | 104 |
| VMA21 (vacuolar ATPase assembly factor VMA21) | SID160761159 | 1.75 | 117 | 2.08 | 75.4 |
| TUBD1 (tubulin delta 1) | SID160740245 | -1.89 | 44.3 | -0.967 | 63.8 |
| TUBD1 (tubulin delta 1) | SID160740246 | 0.0681 | 83.2 | -0.0371 | 93.9 |
| TUBD1 (tubulin delta 1) | SID160740247 | 0.445 | 90.7 | 0.14 | 97.7 |
| ZIC4 (Zic family zinc finger 4) | SID160751738 | 0.176 | 85.4 | 0.282 | 88.6 |
| ZIC4 (Zic family zinc finger 4) | SID160751739 | -0.298 | 76 | -0.259 | 90.9 |
| ZIC4 (Zic family zinc finger 4) | SID160751740 | -0.767 | 66.6 | -0.637 | 88.1 |
| KRTAP13-1 (keratin associated protein 13-1) | SID160757747 | -0.282 | 76.3 | 0.184 | 81.2 |
| KRTAP13-1 (keratin associated protein 13-1) | SID160757748 | 2.07 | 123 | 1.62 | 89.7 |
| KRTAP13-1 (keratin associated protein 13-1) | SID160757750 | -0.0684 | 80.5 | 0.275 | 83.7 |
| FGR (FGR proto-oncogene, Src family tyrosine kinase) | SID160765578 | 0.153 | 84.9 | -0.259 | 102 |
| FGR (FGR proto-oncogene, Src family tyrosine kinase) | SID160765588 | -0.268 | 76.6 | -0.132 | 88.6 |
| FGR (FGR proto-oncogene, Src family tyrosine kinase) | SID160765599 | -2.23 | 37.4 | -0.965 | 53.9 |

Records above marked active (4):
| gene symbol | PubChem SID | total luciferase, z-score | total luciferase, % of control | luciferase per cell, z-score | viable cells, % of control |
| --- | --- | --- | --- | --- | --- |
| SLC7A1 | SID160716889 | 3.31 (active) | 148 | 2.3 | 90 |
| ZNF791 (zinc finger protein 791) | SID160759991 | 3.81 (active) | 158 | 2.39 | 94.1 |
| CNOT3 (CCR4-NOT transcription complex subunit 3) | SID160778143 | 3.99 (active) | 161 | 3.61 | 69.6 |
| TMEM89 (transmembrane protein 89) | SID160725412 | 3.29 (active) | 147 | 2.8 | 78.8 |
